Consider one substance from publication doi:10.1101/228767.

Chains of the proteins cited; added tags and fusions are not shown.
UniProt Q9BXL6: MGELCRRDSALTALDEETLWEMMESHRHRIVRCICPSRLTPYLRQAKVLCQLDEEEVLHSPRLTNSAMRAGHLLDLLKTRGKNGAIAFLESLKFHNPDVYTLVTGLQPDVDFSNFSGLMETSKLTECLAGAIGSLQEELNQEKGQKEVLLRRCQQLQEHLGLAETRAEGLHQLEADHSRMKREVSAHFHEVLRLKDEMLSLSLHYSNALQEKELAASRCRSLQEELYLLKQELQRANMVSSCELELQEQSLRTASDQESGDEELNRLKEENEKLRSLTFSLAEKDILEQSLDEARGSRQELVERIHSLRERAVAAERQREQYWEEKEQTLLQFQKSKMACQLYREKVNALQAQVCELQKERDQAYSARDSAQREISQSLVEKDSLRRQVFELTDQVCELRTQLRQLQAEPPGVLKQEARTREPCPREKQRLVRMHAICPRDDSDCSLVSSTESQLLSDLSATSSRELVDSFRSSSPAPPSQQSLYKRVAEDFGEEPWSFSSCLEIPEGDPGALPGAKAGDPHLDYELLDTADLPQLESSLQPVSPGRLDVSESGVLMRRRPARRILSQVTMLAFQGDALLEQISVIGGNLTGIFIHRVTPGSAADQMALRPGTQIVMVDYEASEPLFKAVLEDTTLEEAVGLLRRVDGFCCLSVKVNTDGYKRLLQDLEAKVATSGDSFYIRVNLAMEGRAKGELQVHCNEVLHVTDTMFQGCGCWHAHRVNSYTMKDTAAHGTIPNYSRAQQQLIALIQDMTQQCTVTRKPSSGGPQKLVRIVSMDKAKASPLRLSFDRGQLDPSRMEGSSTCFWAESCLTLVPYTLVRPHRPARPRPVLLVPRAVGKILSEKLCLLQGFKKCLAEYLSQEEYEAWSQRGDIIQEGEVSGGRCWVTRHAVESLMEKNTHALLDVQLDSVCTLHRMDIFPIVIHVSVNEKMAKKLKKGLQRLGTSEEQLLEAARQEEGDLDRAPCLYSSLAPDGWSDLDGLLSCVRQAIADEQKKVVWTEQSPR

Experiment in all cases: co-IP
In assay [1] the target is T1, Flag-tagged CARD9 (human) (UniProt Q9H257).
T1 sequence: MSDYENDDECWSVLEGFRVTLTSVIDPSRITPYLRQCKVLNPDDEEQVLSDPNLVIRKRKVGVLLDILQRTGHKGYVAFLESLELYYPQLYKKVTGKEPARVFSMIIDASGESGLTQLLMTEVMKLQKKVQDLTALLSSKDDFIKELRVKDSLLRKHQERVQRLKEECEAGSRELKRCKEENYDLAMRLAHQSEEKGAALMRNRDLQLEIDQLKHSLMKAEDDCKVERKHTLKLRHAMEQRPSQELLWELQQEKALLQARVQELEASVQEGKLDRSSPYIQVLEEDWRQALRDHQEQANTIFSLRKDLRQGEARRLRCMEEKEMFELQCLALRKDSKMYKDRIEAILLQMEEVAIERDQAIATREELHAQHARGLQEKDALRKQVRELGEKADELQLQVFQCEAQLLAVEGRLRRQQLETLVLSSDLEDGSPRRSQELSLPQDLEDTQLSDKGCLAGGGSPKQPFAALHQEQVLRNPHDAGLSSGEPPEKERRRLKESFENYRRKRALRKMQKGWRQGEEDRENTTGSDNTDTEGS

Assay [2] has as its target T2, Flag-tagged CARD11 (human) (UniProt Q9BXL7).
T2 sequence: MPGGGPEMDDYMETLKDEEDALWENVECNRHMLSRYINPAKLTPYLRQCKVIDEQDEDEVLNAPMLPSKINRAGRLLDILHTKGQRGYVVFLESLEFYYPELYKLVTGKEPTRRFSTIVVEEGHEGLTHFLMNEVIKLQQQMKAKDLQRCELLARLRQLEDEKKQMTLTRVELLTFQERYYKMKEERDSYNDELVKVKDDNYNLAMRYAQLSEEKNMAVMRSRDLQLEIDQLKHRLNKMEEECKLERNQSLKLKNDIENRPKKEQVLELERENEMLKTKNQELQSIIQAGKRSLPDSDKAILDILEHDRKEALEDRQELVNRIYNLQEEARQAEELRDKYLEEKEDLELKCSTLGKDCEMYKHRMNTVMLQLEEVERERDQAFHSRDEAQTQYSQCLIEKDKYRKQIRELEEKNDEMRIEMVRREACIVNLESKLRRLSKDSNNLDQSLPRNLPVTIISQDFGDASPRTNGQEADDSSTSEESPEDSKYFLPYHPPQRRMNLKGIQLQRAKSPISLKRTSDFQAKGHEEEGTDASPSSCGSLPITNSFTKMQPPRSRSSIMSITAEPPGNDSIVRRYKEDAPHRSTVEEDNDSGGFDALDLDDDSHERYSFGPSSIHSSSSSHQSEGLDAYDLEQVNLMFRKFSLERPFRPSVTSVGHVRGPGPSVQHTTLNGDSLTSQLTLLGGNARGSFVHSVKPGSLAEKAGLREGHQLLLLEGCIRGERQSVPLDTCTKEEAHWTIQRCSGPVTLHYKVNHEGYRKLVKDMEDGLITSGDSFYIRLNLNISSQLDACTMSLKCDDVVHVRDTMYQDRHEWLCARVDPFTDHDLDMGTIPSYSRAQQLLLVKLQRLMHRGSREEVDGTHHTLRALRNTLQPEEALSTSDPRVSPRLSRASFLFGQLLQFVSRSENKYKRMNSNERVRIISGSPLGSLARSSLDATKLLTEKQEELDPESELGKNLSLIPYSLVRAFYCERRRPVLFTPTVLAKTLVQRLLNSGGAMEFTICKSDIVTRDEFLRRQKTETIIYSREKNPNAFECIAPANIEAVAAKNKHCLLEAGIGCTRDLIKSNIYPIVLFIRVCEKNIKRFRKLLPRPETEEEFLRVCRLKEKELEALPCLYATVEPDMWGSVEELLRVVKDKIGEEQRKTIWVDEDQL

In assay [3] the target is T3, Flag-tagged CARD10 (human) (UniProt Q9BWT7).
T3 sequence: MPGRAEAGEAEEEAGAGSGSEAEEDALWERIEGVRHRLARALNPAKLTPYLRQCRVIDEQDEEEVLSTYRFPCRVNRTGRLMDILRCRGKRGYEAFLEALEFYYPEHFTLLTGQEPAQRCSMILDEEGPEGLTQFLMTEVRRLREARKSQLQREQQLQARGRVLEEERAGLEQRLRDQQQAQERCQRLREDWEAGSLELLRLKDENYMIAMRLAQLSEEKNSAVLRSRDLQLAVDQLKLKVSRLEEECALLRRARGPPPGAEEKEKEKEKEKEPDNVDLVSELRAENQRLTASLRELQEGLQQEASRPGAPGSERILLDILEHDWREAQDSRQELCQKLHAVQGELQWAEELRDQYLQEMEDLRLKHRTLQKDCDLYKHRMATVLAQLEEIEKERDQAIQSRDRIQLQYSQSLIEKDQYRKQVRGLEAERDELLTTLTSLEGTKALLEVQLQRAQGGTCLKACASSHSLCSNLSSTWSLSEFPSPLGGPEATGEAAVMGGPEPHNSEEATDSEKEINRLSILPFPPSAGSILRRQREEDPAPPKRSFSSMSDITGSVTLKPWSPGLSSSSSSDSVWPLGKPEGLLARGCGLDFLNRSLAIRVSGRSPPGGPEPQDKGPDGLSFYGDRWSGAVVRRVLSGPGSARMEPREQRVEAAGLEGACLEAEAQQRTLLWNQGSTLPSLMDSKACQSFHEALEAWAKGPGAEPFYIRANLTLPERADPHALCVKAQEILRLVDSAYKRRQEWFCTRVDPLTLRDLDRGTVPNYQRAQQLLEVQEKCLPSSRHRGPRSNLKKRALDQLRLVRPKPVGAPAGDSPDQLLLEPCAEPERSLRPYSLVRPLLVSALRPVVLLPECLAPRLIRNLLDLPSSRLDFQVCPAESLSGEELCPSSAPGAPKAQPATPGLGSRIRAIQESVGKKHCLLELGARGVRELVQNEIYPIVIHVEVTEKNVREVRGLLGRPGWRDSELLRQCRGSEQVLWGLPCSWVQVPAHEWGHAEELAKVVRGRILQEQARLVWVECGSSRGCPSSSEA

Results are given in words; binding and its absence hold for the method and conditions named. In cells and extracts the contact can be indirect. Some binding calls cover weakened binding; strength is not graded here. Where a sequence is shown, tags or fusion partners need not be part of it.

Turning to “un-tagged CARD14 (from UniProt Q9BXL6 1-1004)”, the binding entry in assay [1] is recorded as “no binding”; in assay [2], “binds”; in assay [3], “binds”.
